The list shows only some results of the screen, not a fair sample: it is rich in T/C values a quarter to a half above the control, in often repeated tests (any T/C) and in doses without a T/C. Other doses and runs of a compound stand elsewhere. T/C is the treated group as % of the vehicle group. Some doses have a count of surviving animals in place of a T/C: the source holds a T/C of zero for them, seemingly a mark for toxic or unscored doses. Some survivor counts are full or nearly so, which does not show that the dose was tolerated: survival well below the control is almost never listed, so the zero probably covers shortened survival too. Survivors were counted at the toxicity check, usually on the fifth day, unless a day is given; later deaths do not show. Schedule codes are those of the source, taken here to give the interval after Q, in days (D) or hours (H), and the number of doses after X. Some schedule codes hold Z or #, which are not explained here. Some molecules as drawn cover several salts, stereoisomers or complexes of the source; a dose is that of the sample tested. Some entries were tested several times; their values stand side by side, smallest first. Marks such as (2×) count equal records among those shown. For survival time, this PubChem deposit counts one and a half times the control or more as active, and values a quarter to a half above the control carry no call in these data; other NCI protocols may use other cut-offs. Some T/C values carry the count of animals alive at the toxicity check (mostly the fifth day); without a count, all were alive then.
System: BDF1 mice, P388 leukemia ip, median survival T/C
Assay: NCI In Vivo Anticancer Drug Screen. Data for tumor model P388 Leukemia (intraperitoneal) in B6D2F1 (BDF1) mice
Conditions: T/C endpoint: median survival time, higher T/C = longer survival
In short: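 T/C = treated-group survival ÷ vehicle-control survival; tumour transplanted into mice before dosing.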

[1] = dose: 1.5 mg/kg/injection, schedule: Q01DX010 (ip), vehicle: saline
[2] = dose: 2.0 mg/kg/injection, schedule: Q01DX010 (ip), vehicle: saline

`CO[C@H](C(=O)[C@@H](O)[C@@H](C)O)[C@@H]1Cc2cc3cc(OC4CC(OC5CC(O)C(O)C(C)O5)C(O)C(C)O4)c(C)c(O)c3c(O)c2C(=O)[C@H]1OC1CC(OC2CC(OC3CC(C)(O)C(O)C(C)O3)C(O)C(C)O2)C(O)C(C)O1` (stereo partly drawn) was tested, and the T/C (dose: 1.0 mg/kg/injection, schedule: Q01DX010 (ip), vehicle: saline, run until all animals had died) was 109, 145, 186, 190, 222, 254 % of control, the survivor count (dose: 1.0 mg/kg/injection, schedule: Q01DX010 (ip), vehicle: water) was 0 of 6, 1 of 6, 2 of 6, 3 of 6, 4 of 6, 5 of 6 and the survivor count (dose: 1.0 mg/kg/injection, schedule: Q01DX010 (oral), vehicle: water) was 5 of 6. The survivor count (dose: 1.0 mg/kg/injection, schedule: Q01DX015 (ip), vehicle: water) was 0 of 6, the survivor count (dose: 1.0 mg/kg/injection, schedule: Q02DX005 (ip), vehicle: water) was 3 of 6 and the survivor count (dose: 1.0 mg/kg/injection, schedule: Q#A X005 (ip), vehicle: saline) was 6 of 7. For the same molecule, the survivor count (dose: 1.5 mg/kg/injection, schedule: Q01DX005 (ip), vehicle: water) was 0 of 8, the T/C [1] was 130 % of control [5 of 6 alive] and the survivor count [1] was 6 of 7. The survivor count (dose: 1.5 mg/kg/injection, schedule: Q01DX010 (ip), vehicle: water) was 0 of 6 and 2 of 6, the survivor count (dose: 1.5 mg/kg/injection, schedule: Q01DX010 (oral), vehicle: water) was 1 of 6 and the survivor count (dose: 1.5 mg/kg/injection, schedule: Q01DX015 (ip), vehicle: water) was 1 of 6. For the same molecule, the survivor count (dose: 1.5 mg/kg/injection, schedule: Q02DX005 (ip), vehicle: water) was 3 of 6, the survivor count (dose: 2.0 mg/kg/injection, schedule: Q01DX001 (im), vehicle: water) was 2 of 4 and the survivor count (dose: 2.0 mg/kg/injection, schedule: Q01DX001 (ip), vehicle: saline) was 4 of 10. The survivor count (dose: 2.0 mg/kg/injection, schedule: Q01DX001 (ip), vehicle: water) was 0 of 4, the survivor count (dose: 2.0 mg/kg/injection, schedule: Q01DX005 (ip), vehicle: saline) was 0 of 10 and the survivor count (dose: 2.0 mg/kg/injection, schedule: Q01DX009 (ip), vehicle: clinical formulation) was 1 of 6. For the same molecule, the survivor count (dose: 2.0 mg/kg/injection, schedule: Q01DX009 (ip), vehicle: saline) was 0 of 10 (2×), the T/C [2] was 86 % of control [4 of 6 alive] and the survivor count [2] was 1 of 7, 2 of 10, 2 of 6, 3 of 6, 6 of 10, 9 of 10, 10 of 10. The survivor count (dose: 2.0 mg/kg/injection, schedule: Q01DX010 (oral), vehicle: water) was 1 of 6, the survivor count (dose: 2.0 mg/kg/injection, schedule: Q02DX005 (ip), vehicle: water) was 3 of 6 and the survivor count (dose: 2.0 mg/kg/injection, schedule: Q04DX003 (ip), vehicle: saline) was 6 of 10 and 5 of 7. For the same molecule, the survivor count (dose: 2.0 mg/kg/injection, schedule: Q#A X005 (ip), vehicle: saline) was 1 of 7, the survivor count (dose: 2.5 mg/kg/injection, schedule: Q01DX010 (oral), vehicle: water) was 5 of 6 and the survivor count (dose: 3.0 mg/kg/injection, schedule: Q01DX001 (ip), vehicle: water) was 0 of 4. The survivor count (dose: 3.0 mg/kg/injection, schedule: Q01DX010 (ip), vehicle: saline) was 0 of 7 and 2 of 6, the survivor count (dose: 3.0 mg/kg/injection, schedule: Q04DX003 (ip), vehicle: water) was 2 of 8 and the survivor count (dose: 4.0 mg/kg/injection, schedule: Q01DX001 (ip), vehicle: saline) was 0 of 10 and 0 of 7. The survivor count (dose: 4.0 mg/kg/injection, schedule: Q04DX003 (ip), vehicle: saline) was 0 of 10 and 1 of 7, the survivor count (dose: 6.0 mg/kg/injection, schedule: Q01DX010 (ip), vehicle: saline) was 0 of 6 and 0 of 7 and the survivor count (dose: 8.0 mg/kg/injection, schedule: Q01DX001 (ip), vehicle: saline) was 0 of 7. The survivor count (dose: 8.0 mg/kg/injection, schedule: Q04DX003 (ip), vehicle: saline) was 0 of 7, the survivor count (dose: 16.0 mg/kg/injection, schedule: Q01DX001 (ip), vehicle: saline) was 0 of 7 and the survivor count (dose: 100.0 mg/kg/injection, schedule: Q01DX010 (ip), vehicle: water) was 6 of 6. The survivor count (dose: 16.3 micrograms/kg/injection, schedule: Q03HX008 (ip), vehicle: saline) was 6 of 10, the survivor count (dose: 16.3 micrograms/kg/injection, schedule: Q04DX024 (ip), vehicle: saline) was 5 of 10 and the survivor count (dose: 31.3 micrograms/kg/injection, schedule: Q03HX008 (ip), vehicle: saline) was 3 of 10. For the same molecule, the survivor count (dose: 31.3 micrograms/kg/injection, schedule: Q04DX024 (ip), vehicle: saline) was 2 of 10, the survivor count (dose: 62.5 micrograms/kg/injection, schedule: Q03HX008 (ip), vehicle: saline) was 0 of 10 and the survivor count (dose: 62.5 micrograms/kg/injection, schedule: Q04DX024 (ip), vehicle: saline) was 0 of 10. For the same molecule, the T/C (dose: 216.0 micrograms/kg/injection, schedule: Q01DX005 (ip), vehicle: water) was 132 % of control, the T/C (dose: 250.0 micrograms/kg/injection, schedule: Q01DX010 (ip), vehicle: saline) was 127 % of control and the T/C (dose: 360.0 micrograms/kg/injection, schedule: Q01DX005 (ip), vehicle: water) was 131 % of control. For the same molecule, the T/C (dose: 500.0 micrograms/kg/injection, schedule: Q01DX010 (ip), vehicle: saline) was 145 % of control, the T/C (dose: 600.0 micrograms/kg/injection, schedule: Q01DX005 (ip), vehicle: water) was 143 % of control and the T/C (dose: 1000.0 micrograms/kg/injection, schedule: Q01DX005 (ip), vehicle: water) was 130 % of control [7 of 8 alive].

Source: PubChem BioAssay AID328 (DTP/NCI, 2004)
